# Screening data

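Luminescence from an EWS-FLI1 target-promoter (NR0B1) reporter, set against a CMV-promoter reporter, two days after silencing single genes in TC32 Ewing sarcoma cells.
Each siRNA was applied at 20 nM.
A z-score of the log NR0B1-over-CMV signal, less the median of siRNAs with the same seed; more negative means a stronger specific loss of the NR0B1 reporter.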

The strongest results of the screen are mostly left out here.
Sequences are the guide (antisense) strand, without overhang.

| strand | target gene | seed-corrected z-score |
|---|---|---|
| `ACUUUUCUCACUAUCCGGG` | APOL4 | 0.4908 |
| `UGGUGCAUUCGAUCGGUCC` | OSTC | -0.1996 |
| `AACACUUUAAGAACUCCGC` | HIST1H4L | -0.2284 |
| `UUCGUUAUACUGAAUGACC` | ZFHX4 | 0.8563 |
| `UCAGAUACCACGUUGGUCC` | UBXN6 | 0.3491 |
| `UAAGUUAUUUGGAAUGGUG` | PCBP1 | 0.7642 |
| `UCAGUGACCAUACUCCGCA` | CENPV | 0.9086 |
| `UAAGGUGUUAGCUUCCUGG` | NLRP7 | 0.2084 |
| `UCAUAGAACCGUCUGGUGG` | RUNDC3A | -0.2298 |
| `UCAUUGGUGUCAAUCAUUG` | MBNL1 | 0.576 |
| `UAGAGUACAGCUGAGACCC` | KCNJ13 | 1.638 |
| `UCUGGUGUCUUUGGGAUCU` | LOC131055 | -1.475 |
| `UGCAGUGACAAAGUUCUCA` | HCG22 | 0.725 |
| `UCUGAAUACGGGAUGCUGG` | CLIP3 | -0.1232 |
| `UGAUGGAUAGGAGUGAGGC` | ADTRP | 0.4343 |
| `UCUGUUGAAAGGCCUAGUC` | ALPK3 | -1.518 |
| `AUCGGUGUCAGAGACUUCC` | PGBD1 | -0.3606 |
| `UAGGCUUCCAAGUACUCCG` | CACNB1 | -0.004478 |
| `AAAGUAGAAGGUCAUAGGC` | SLC31A1 | -0.3708 |
| `UCUAUGCUCAUAUCCUUCC` | KLHL4 | -0.01007 |
| `UAUAUCUUUAAGGUGAUUC` | TADA1 | -0.215 |
| `UGUAUAAGGAGUAAUGAUC` | C1orf140 | 0.2746 |
| `UCAUAGGGAAUUACGAUGC` | SLC10A2 | 0.6479 |
| `ACAAGUUGUUCUUUUCUGC` | RAB11B | 0.5028 |
| `AACUCUUAUAAUGUAAUGG` | PPIG | -0.1517 |
| `UAGCAUCCCGUACAGGUUC` | KIF12 | -0.8908 |
| `UCCUGGAUAGCAAAGUUGU` | LOXL4 | 0.2627 |
| `UUAUUUCACAAACACUAGG` | ATP6V0B | -0.4807 |
| `UACUUCAUGAUCUGGAGCC` | ZNF48 | 0.3844 |
| `UCUUCAUCAACGUAGAGCC` | SLC39A11 | 0.06801 |
| `ACAGGAACGUGGUUGGUGC` | ANKRD54 | -1.195 |
| `UGAGAAGUCAGGCUUGGUG` | FLJ36777 | 1.017 |
| `UACGGUGAGGGUAACAGCC` | LDLRAP1 | -0.2175 |
| `UGCUGGAGAAUAGUACACC` | AKAP1 | -0.009621 |
| `UAAUUCCAUACACCAAUGC` | SLC6A15 | -0.7107 |
| `UUAAGUCUGAUGACAUCUG` | GOLGA1 | 1.158 |
| `UAAGUGCACACGAUUCAGG` | SSBP1 | 1.473 |
| `UUUCAGGUCGUCACCAUGC` | KRT74 | 0.01007 |
| `UAAGCAGUAAGUAAUAAAU` | SLC31A2 | 0.9015 |
| `UAUCUGAGCACUAGGGCCU` | MMS19 | 0.7355 |
| `UAACAUAAGAUGCCUCUGU` | RPSAP19 | 1.257 |
| `UCGUUUUAGCUGACCAUCC` | SOCS4 | 0.2357 |
| `AACGUAAUUAAGACUAUUC` | TMEM100 | -0.09564 |
| `AAUCUCUCAAUAGUUGUGC` | CCDC149 | 0.9844 |
| `UUUGCAAAUUGAUCAAUGC` | LSM1 | 0.5176 |
| `UGAGUACUCAGACAUCUCC` | KIAA0319 | 0.1278 |
| `AAGGUCACAAGGAACAUCU` | FAM214B | 1.53 |
| `UACUUGGAAAGCUUUCCGG` | MMP12 | -0.2629 |
| `UUUUUGGUCAUGUUGAAGU` | PPARD | 1.057 |
| `UUUAGAUCAAAGAUAGACC` | WDR73 | -1.007 |
| `UCUAUUAUCUCAGACGGUG` | SLCO1B7 | 0.05321 |
| `UAAGGAUCCACCUCAUUCC` | DCAF7 | 0.7973 |
| `UUGGUGAUGAUAUCGUGGG` | SERPINA1 | -0.06414 |
| `UUACUGAUGAGUACAUAGC` | PAG1 | 0.362 |
| `UAAUUUGUAGGUAUCCUUG` | BHLHE41 | -0.9959 |
| `UAAGGUCACAAGUGAUUUC` | TRGV5 | 1.458 |
| `ACUGUGUCCAGCAAAACCC` | GNB2 | 0.6399 |
| `UUUUCCCGAAUUUCUGUCU` | RPS24 | 1.181 |
| `UUUUGGACUAUCGUCAGAC` | GNLY | 0.3569 |
| `UCAGUACAAAAUUUUCCCG` | PROZ | -0.3346 |
| `AUAGCAUCCUUUACAAUAG` | CSRP2 | -0.2583 |
| `AUUGUUGAAAGAGCUAUAG` | RORB | 0.8133 |
| `UUCUUAACUAAAAGUGUCC` | STK17A | 0.8783 |
| `UUGUAUACAACUGGUCUCC` | TMEM41B | -1.516 |
| `UAUACAUCAUAGUCCUUAC` | ZC3H8 | -0.7561 |
| `UAUGUAGCUUAGCAAGUCG` | MAOA | -0.08858 |
| `UACACAAACUGAAAUAUGC` | SSX5 | 0.08852 |
| `UUCAAUCUCAAAGUGAGUC` | TECRL | 0.7939 |
| `UCCGGAAUGUAGAUAGUCC` | AKT3 | -0.4575 |
| `UUACUCUCCAACUUAAGGC` | ZNF215 | -0.1208 |
| `AGCGAUGUUAGUGAUCUGC` | POLA1 | 0.6233 |
| `UGAGGUUACACCACGUGCA` | TNFRSF4 | -1.273 |
| `UCUGUGAAGGAGUAAGGCC` | RPS13 | 2.079 |
| `UUGUGGAAAAGCAAAUAUA` | ALG10B | 0.2297 |
| `UUUGCUCACGUAGCAGGCG` | NKAIN1 | -0.4847 |
| `AUACUUGUCUAUGACAGCC` | TNN | -0.4332 |
| `UUACGGUCAGUCUCAAGGC` | SIRPG | 0.425 |
| `UAGUUAGACAUAUCAUCCG` | DCUN1D2 | 0.04832 |
| `UAUAAGCUAAUCUACGUUC` | TBK1 | -0.1001 |
| `UAGAAAUUACGGGCAAUCC` | NDUFB5 | 1.328 |
| `UUUGGUAGUAGGUUCCAUG` | SELPLG | 0.7809 |
| `UAAGAGUCCUCUUGCAACC` | DUS4L | 0.1256 |
| `UCAUAACUGAGGUUCUUGC` | CDH16 | -0.423 |
| `UGAUCUAAUUCAUCCAGUG` | BUD31 | -0.6117 |

Once more, the final 5:

strand	target gene	seed-corrected z-score
UAGAAAUUACGGGCAAUCC	NDUFB5	1.328
UUUGGUAGUAGGUUCCAUG	SELPLG	0.7809
UAAGAGUCCUCUUGCAACC	DUS4L	0.1256
UCAUAACUGAGGUUCUUGC	CDH16	-0.423
UGAUCUAAUUCAUCCAGUG	BUD31	-0.6117

Data taken from PubChem BioAssay AID1159506, deposited by NCATS (2015).